The source of these data is US20150352094A1, “USE OF FATTY ACID NIACIN CONJUGATES FOR TREATING DISEASES” (CATABASIS PHARMACEUTICALS, INC., priority 2013, published 2015).

In the test the test system is female APOE*3Leiden mice. The test is described as follows: Plasma cholesterol and triglycerides in APOE*3Leiden mice on high cholesterol Western type diet. Type of test: in vivo. Conditions: I-8 0.75% w/w in diet, atorvastatin 0.0015% w/w in diet. On the procedure: The study was conducted using female APOE*3Leiden mice (groups of each n=10) and one untreated reference control group on chow (n=5). To induce dyslipidemia, a high cholesterol Western type diet containing 1% cholesterol, 15% cacao butter, 40.5% sucrose and 1% corn oil (WTD) was fed to the mice for a total experimental period of 20 weeks (of which 4 weeks are a run-in period). To prevent oxidation of the test compound (I-8), 30 mg/kg alpha-tocopherol was added to the high cholesterol diets, i.e. also in the high cholesterol diet control.
In the first 4 weeks (run-in period), a pro-atherogenic state of dyslipidemia characterized by elevated plasma cholesterol levels (about 15-20 mM) was induced in all mice by feeding them an atherogenic diet containing 1% cholesterol. The mice were then separated into a control group (no treatment) and three treatment groups: i) compound I-8, ii) atorvastatin and iii) compound I-8+atorvastatin as described below. The dyslipidemic mice were grouped on the basis of plasma cholesterol at t=0 assayed in 4 h fasting blood. Mice with low cholesterol after the run-in period were excluded so that homogenous experimental groups were obtained. A group of reference mice (n=5) remained on a chow diet during the complete study period (normolipidemic reference mice).
The doses of the test compounds were as follows: • Compound I-8: 0.75% w/w in diet. • Atorvastatin: 0.0015% w/w in diet (to achieve about 20% reduction in plasma cholesterol). • Alpha-tocopherol: 0.0030% w/w in diet
The test compounds, sufficient for approx. 3 kg of diet (i.e. 25 g of compound I-8), and alpha-tocopherol (>200 mg) were formulated before the start of the treatment period (t=0), by adding the test compounds to melted, hand warm cocoa butter and mixed for 5 min. This mix was then added to the master mix (containing the rest of the ingredients) and mixed thoroughly. The diet was frozen to −20° C. On the subsequent day, the diet was broken into small pellets (approx 5 g per piece) and freeze dried, and stored in vacuum sealed bags (approx 500 g) at −20° C. until use. […]

For `CC(C)c1c(C(=O)Nc2ccccc2)c(-c2ccccc2)c(-c2ccc(F)cc2)n1CC[C@@H](O)C[C@@H](O)CC(=O)O` [atorvastatin, reference compound], for the setting “after 4 weeks of treatment”, the plasma cholesterol entry is given as “Comparable level of cholesterol reduction” and the plasma triglycerides entry is “failed to show a statistically significant change”. Moreover, the plasma cholesterol result (t=2 weeks of treatment) is reported as “statistically significant reduction”.
